Our source for the binding signal values is PMC7819943, “Rice protein-binding microarrays: a tool to detect cis-acting elements near promoter regions in rice”.

Protein sequences, listed by entry. Tags and fused reporters are not part of them.
UniProt Q0JBA9, entry or part of it: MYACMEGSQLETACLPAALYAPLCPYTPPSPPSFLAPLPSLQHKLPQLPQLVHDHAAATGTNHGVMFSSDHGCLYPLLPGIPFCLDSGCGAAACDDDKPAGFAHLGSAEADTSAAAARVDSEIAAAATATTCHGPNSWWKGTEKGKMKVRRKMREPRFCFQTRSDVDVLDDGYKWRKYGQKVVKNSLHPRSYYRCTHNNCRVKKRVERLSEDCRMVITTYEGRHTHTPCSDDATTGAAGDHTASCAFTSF

The other results are listed elsewhere or left out.

This experiment addresses OsWRKY34 (Oryza sativa, UniProt Q0JBA9 1-250). The experiment in a line: protein-binding microarray (RPBM); PBS, 2% BSA, 51.3 ng/ul salmon testes DNA, 50 uM zinc acetate, 200 nM TF, 25 C, 1 h; high values mean tight binding. The settings on record: protein: recombinant; tags: N-terminal polyhistidine and DsRed monomer fusion (pET32a); label: CyDye5-dUTP incorporated in the synthesized complementary strand; 3' TTTTT single-stranded linker to array surface; dsDNA, one strand shown. Put shortly:
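Transcription factors, each fused N-terminally to a polyhistidine tag and DsRed, were expressed in E. coli BL21-CodonPlus and purified on Ni–NTA. A custom Agilent array was made double-stranded by primer extension with Cy5-dUTP and blocked with 2% BSA. It was incubated with 200 nM protein in PBS, 2% BSA, salmon testes DNA and 50 µM zinc acetate at 25 °C for 1 h, then washed. The binding signal is per-feature fluorescence intensity (arbitrary units) read on an Axon 4000B scanner.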
For “TCTGTTTATAATATCTGGGGTCATGTGATTCGGGTTACTACGGAGTCACCTAGTGCAG”, the binding signal was 9160 fluorescence intensity (a.u.).

In the case of “GGGCAGTGCTTTATACCACCAATGACATCCAGGTTCATGTCGGAGTCACCTAGTGCAG”, the binding signal was 8610 fluorescence intensity (a.u.).

For “ACTTCTATTGGCCGTTCGACACGCGAAAACCAACCCAATGCGGAGTCACCTAGTGCAG”, the binding signal was 8110 fluorescence intensity (a.u.).

In the case of “GGGCCATAATTGTTTCAATTTCAGTGTAATCTATTGGATTCGGAGTCACCTAGTGCAG”, the binding signal is 8120 fluorescence intensity (a.u.).

For the sequence “TTCCCTTTTCTTCCCGAACGGCGGTGGTGGTGGGCTTAGTCGGAGTCACCTAGTGCAG”, the binding signal is 8070 fluorescence intensity (a.u.).

For the sequence “TCTATCTATTGAGTTGCCTTTTGATTTGTCAACCATACATCGGAGTCACCTAGTGCAG”, the binding signal was 9560 fluorescence intensity (a.u.).

Take “AATTTTCTCAACGCCGCACTGGTCCATCACTCCAAGGTCACGGAGTCACCTAGTGCAG”: the binding signal was 8930 fluorescence intensity (a.u.).

In the case of “AGTGCTGGAGGAGGGAGGCGGGGAGGGGAGCCATCAGCCACGGAGTCACCTAGTGCAG”, the binding signal was 17300 fluorescence intensity (a.u.).

In the case of “TGGCTAGTTTGGCCGGCGCGCGCGGGGAGGGAGGGAGGGACGGAGTCACCTAGTGCAG”, the binding signal is 11700 fluorescence intensity (a.u.).

“CACCACGTCTCGCGCCGCAGCGTATGCACACCTCCTCAGCCGGAGTCACCTAGTGCAG”: the binding signal is 10000 fluorescence intensity (a.u.).

“CCAGCCTCCACTGTGCTCCTCGTGTCCGCCGTTCTGATCTCGGAGTCACCTAGTGCAG”: the binding signal is 11200 fluorescence intensity (a.u.).

As to “ATTCCCGGCCATGTTCTTCAATTCCTGTCCGGCTCAGTACCGGAGTCACCTAGTGCAG”, the binding signal is 8430 fluorescence intensity (a.u.).

Take “ACTTTCTTTTTGGGCCTGAAACCACGACGGCCCTTTGTTCCGGAGTCACCTAGTGCAG”: the binding signal was 8760 fluorescence intensity (a.u.).

With “GGTGGGTGTGTGCTTGTTTCGGCGTGTGATTTGGGCGGAGCGGAGTCACCTAGTGCAG”, the binding signal is 16500 fluorescence intensity (a.u.).

On to “TCACCCTGTCCTCGTCACGTCCCATTTTACATCCACCACCCGGAGTCACCTAGTGCAG”, for which the binding signal was 9210 fluorescence intensity (a.u.).

As for “TGGTGGTGGCTGGCGGCGGGGAGGATGAGAACGAGAGAAGCGGAGTCACCTAGTGCAG”, the binding signal was 9940 fluorescence intensity (a.u.).

Consider “CTTTCACTATCAGCACAAGACTTGTCTGCCAATATCTCATCGGAGTCACCTAGTGCAG”, for which the binding signal is 8160 fluorescence intensity (a.u.).

On to “CACTATCTCATCTGCGGTGTAGAGTTGACCTCTCTAATTTCGGAGTCACCTAGTGCAG”, for which the binding signal was 9230 fluorescence intensity (a.u.).

Consider “AAACCTCACCATCATCGACCCACTTGTTCCTAGCGATCTACGGAGTCACCTAGTGCAG”, for which the binding signal was 9980 fluorescence intensity (a.u.).

Regarding “TCTCCTGGTTTTGTGTGTTAGCGCTGTCAGTGTGTGGGTGCGGAGTCACCTAGTGCAG”, the binding signal was 8120 fluorescence intensity (a.u.).

As for “TAGTCTGTCAAATTGGCCATCCATCTCCAGCACTGATACCCGGAGTCACCTAGTGCAG”, the binding signal is 8310 fluorescence intensity (a.u.).

On to “CGTCGTCCCCGCCGCGCCGCCGCCGCCGCATCCTCCGGGTCGGAGTCACCTAGTGCAG”, for which the binding signal is 9300 fluorescence intensity (a.u.).

“CCGGGTTCTATCAAAATCTACGTAACTATACAAGCACATTCGGAGTCACCTAGTGCAG”: the binding signal was 8070 fluorescence intensity (a.u.).

For “GTTTCGACTGCTCCACAACTCCACTCTAAACCCACATTATCGGAGTCACCTAGTGCAG”, the binding signal is 9510 fluorescence intensity (a.u.).

Consider “GGTCGCCGTCGTCAACGTTGGTCTTGGGCACCTCGCGTTTCGGAGTCACCTAGTGCAG”, for which the binding signal was 10600 fluorescence intensity (a.u.).

As to “GAGCTCTGGCCCACTCTTCAGTCTTCGGATTCTCCACTCTCGGAGTCACCTAGTGCAG”, the binding signal was 8120 fluorescence intensity (a.u.).

As for “TGTTTGTGTGGCGGGGAGGAGGCGATGCCGCAAGGGGCGACGGAGTCACCTAGTGCAG”, the binding signal is 8880 fluorescence intensity (a.u.).

Turning to “AACGTACTGCTCCCTGCCCCTCTTGATTTGGTTTCTTTCTCGGAGTCACCTAGTGCAG”, the binding signal was 8280 fluorescence intensity (a.u.).

For the sequence “ACCACCACCCTGATGGATCTTGGCTCTAGCTCCTGGTTTTCGGAGTCACCTAGTGCAG”, the binding signal is 8110 fluorescence intensity (a.u.).

Regarding “AAAAATATTTGACAGCGTTGACTTTTTAGTGCGTATTTGACGGAGTCACCTAGTGCAG”, the binding signal is 42800 fluorescence intensity (a.u.).

As for “ATATTGCGATGCACTGATTTTTTTTCGTAGCGTTTCCGTACGGAGTCACCTAGTGCAG”, the binding signal is 10000 fluorescence intensity (a.u.).

Consider “CCAATTTTGTGTACACACACGCACTAACTGAGATCGATGACGGAGTCACCTAGTGCAG”, for which the binding signal is 8160 fluorescence intensity (a.u.).

For the sequence “CGTGGCGTGGTAGTCTTCGACTCGTTCTTTTTGTTGTTGTCGGAGTCACCTAGTGCAG”, the binding signal is 8610 fluorescence intensity (a.u.).

With “TTCCCTCGTCGTCTTCTTCGTGTCCGCTCTTTGGGCCTCGCGGAGTCACCTAGTGCAG”, the binding signal was 9330 fluorescence intensity (a.u.).

For the sequence “AGCAACCAGTCGCCTCTCCCCGCCGCACGCACGCACACCTCGGAGTCACCTAGTGCAG”, the binding signal was 8960 fluorescence intensity (a.u.).

Take “AAGGGGTTTCTCTTCTATTCTCATTTGCTTTTCCTTTTTGCGGAGTCACCTAGTGCAG”: the binding signal is 8750 fluorescence intensity (a.u.).

Turning to “GTGGTGATTCCGCCCCATCCATCCCGCGTCGACGTAGAAACGGAGTCACCTAGTGCAG”, the binding signal is 8260 fluorescence intensity (a.u.).

On to “TTTAGAGTCATGTTGGTGTCTGGATTTCCTTTTGTTGGTACGGAGTCACCTAGTGCAG”, for which the binding signal is 8740 fluorescence intensity (a.u.).

Turning to “TTACATGTAAACTGTGCAATTGGTTCTTTTTTCATCCACACGGAGTCACCTAGTGCAG”, the binding signal is 8370 fluorescence intensity (a.u.).

As for “AATTTTGGATATGTTTGTCTCTTTTTTTATTTCATTCGAACGGAGTCACCTAGTGCAG”, the binding signal is 8350 fluorescence intensity (a.u.).

With “CTGCACCACCCCACCCCACCCCACCCCACCGGCGGCGATGCGGAGTCACCTAGTGCAG”, the binding signal was 9040 fluorescence intensity (a.u.).

In the case of “CTTGTCGCTACCATCGGACCGCACATCGTAGCTGCCGGACCGGAGTCACCTAGTGCAG”, the binding signal is 8250 fluorescence intensity (a.u.).

For the sequence “ATCGATCGGTTAATCTGTAGGCTGCTACCTCGCTAGCTCCCGGAGTCACCTAGTGCAG”, the binding signal was 8510 fluorescence intensity (a.u.).

As for “ACCACACACACACTGACACTGTGACACAACACAACACGGCCGGAGTCACCTAGTGCAG”, the binding signal is 9500 ± 738 fluorescence intensity (a.u.).

Turning to “GTCATCACCACCACGCGAGCTCGCTCAGCAACACGACACGCGGAGTCACCTAGTGCAG”, the binding signal was 8510 fluorescence intensity (a.u.).

On to “CGCCCACCGCCCGCGTCTGCTCAGCTGGTTTAAATTTGAACGGAGTCACCTAGTGCAG”, for which the binding signal is 9550 fluorescence intensity (a.u.).

For the sequence “ATCCTCTCTCCTGAAGACCTATTTGCAGTAAGTGTTCTCTCGGAGTCACCTAGTGCAG”, the binding signal is 8370 fluorescence intensity (a.u.).

In the case of “ACTATAATATTCATCCGATCCAAATCCGCATATTCTCGGTCGGAGTCACCTAGTGCAG”, the binding signal was 8720 fluorescence intensity (a.u.).

In the case of “ATCCAAGCCATGTTCCATACGCATCACAATTCCACAAGCTCGGAGTCACCTAGTGCAG”, the binding signal is 9480 fluorescence intensity (a.u.).

As for “AACCAGTTCAATCATCCAGTATACTTCCCATCCTCCTACTCGGAGTCACCTAGTGCAG”, the binding signal is 8460 fluorescence intensity (a.u.).

On to “CGAATTTTTTCATTTTTTTTCTCTCTTTCCATTCTCCCCGCGGAGTCACCTAGTGCAG”, for which the binding signal is 8100 fluorescence intensity (a.u.).

As to “CCAAATGGAGGTGCATTCTCATTTCTCACCGGCCGTTGACCGGAGTCACCTAGTGCAG”, the binding signal is 11100 fluorescence intensity (a.u.).

Consider “CTTAATTGCTTATTGGTTTTTCATGGATCGTATTTATCAACGGAGTCACCTAGTGCAG”, for which the binding signal is 9780 fluorescence intensity (a.u.).

Consider “CTAACCTGGACCGTCCATCCGCGCGAAGTTTTCTCCACCGCGGAGTCACCTAGTGCAG”, for which the binding signal is 9060 fluorescence intensity (a.u.).
